Values from PubChem BioAssay AID686937 (Drosophila RNAi Screening Center, 2013).

Purpose: 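Genes in the fly needed for secretion of protein constitutively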 (primary screen)
Cells: Drosophila S2 cells expressing secreted horseradish peroxidase
Reagent: long dsRNA against Drosophila genes
Timing: about 5.5 days (5 days dsRNA, then 12 h reporter induction)
Treatment: reporter expression induced after 5 days of dsRNA, read 12 h later; inducer not stated
Detection: 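Chemiluminescent measurement of peroxidase in the medium 12 h after reporter induction, following 5 days of dsRNA, given as a z-score per plate; higher means more secretion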
Reading the numbers: z-score: higher = more reporter secreted into medium
In all, the deposit lists about 23,000 reagents; this is an unselected part of those with a known target gene and a result. 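Reduced-secretion tags in replicate 1 do not always agree with the z-scores; no criterion for assigning the tags was given.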 The numbers tell different reagents against one gene apart. Names joined by + are all predicted targets of the reagent. Not stated in the record: the amount of reagent.

z-score, replicate 1 | z-score, replicate 2 | z-score, replicate 3 | z-score, replicate 4 | phenotype, replicate 1 | target gene | reagent no.
0.37 | 0.31 | – | – | – | CG10163 | 1
0.42 | 0.36 | – | – | – | CG31342 | 1
0.3 | 0.16 | – | – | – | CG31342 | 2
0.32 | 0.53 | – | – | – | CG1889 | 1
1.08 | -0.02 | – | – | – | CG15282 | 1
0 | -0.32 | – | – | – | Ccm3 | 1
0.23 | -0.11 | – | – | – | CG15036 | 1
0.37 | -0.07 | – | – | – | Prp39 | 1
0.26 | 0.12 | – | – | – | Sgsh | 1
-0.39 | 0.13 | – | – | – | lncRNA:CR30009 | 1
-0.03 | 0.1 | – | – | – | St1 | 1
-1.56 | -0.61 | – | – | reduced secretion | Mgat1 | 1
0.37 | 0.28 | – | – | – | Yeti | 1
-4.19 | 0.45 | – | – | reduced secretion | sli | 1
0.99 | 0.2 | – | – | – | sli | 2
0.21 | 0.18 | – | – | – | PH4alphaNE1 | 1
-0.4 | -0.01 | – | – | – | CG6262 | 1
0.39 | 0.23 | – | – | – | NimB4 | 1
0.15 | 0.23 | – | – | – | CG13047 | 1
0.64 | 0.59 | – | – | – | vnd | 1
-0.11 | 0.3 | 0.25 | 0.47 | – | vnd | 2
-0.54 | -0.53 | – | – | – | vnd | 3
-0.02 | 0.1 | – | – | – | CG2926 | 1
0.01 | – | – | – | – | CG34038 | 1
0.24 | 0.17 | – | – | – | CG9521 | 1
0.23 | -0.23 | – | – | – | nol | 1
0.17 | 0.25 | – | – | – | CG14230 | 1
-0.48 | 0.17 | – | – | – | SCAR | 1
0.26 | 0.26 | – | – | – | CG31882 | 1
0.2 | 0.23 | – | – | – | CG1317 | 1
0.4 | 0.4 | – | – | – | CG1785 | 1
0.02 | 0.15 | – | – | – | CG13806 | 1
0.54 | 0.43 | – | – | – | Lac | 1
0.3 | 0.39 | – | – | – | CG13255 | 1
0.26 | 0.37 | – | – | – | Tpc2 | 1
0.16 | 0.37 | – | – | – | Or1a | 1
0.43 | 0.47 | – | – | – | CG17298 | 1
0.22 | 0.53 | – | – | – | CG15202 | 1
0.2 | 0.35 | – | – | – | salto | 1
-2.06 | -2.77 | – | – | reduced secretion | RpLP1 | 1
-1.82 | -4.47 | – | – | reduced secretion | RpLP1 | 2
0.24 | 0.27 | – | – | – | igl | 1
0.28 | 0.2 | – | – | – | CG34263 | 1
-0.11 | 0.06 | – | – | – | Cyp6w1 | 1
-0.01 | 0.24 | – | – | – | CG8388 | 1
0.55 | 0.86 | – | – | – | Upf2 | 1

Taken from above:
St1, z-score, replicate 2: 0.1
Under “z-score, replicate 2”, CG34263 has 0.2
For “z-score, replicate 2”, CG15036 reads -0.11
salto, z-score, replicate 2 = 0.35

The list goes on:
z-score, replicate 1 | z-score, replicate 2 | z-score, replicate 3 | z-score, replicate 4 | phenotype, replicate 1 | target gene | reagent no.
0.34 | 0.46 | – | – | – | Rbp1 | 1
0.13 | 0.2 | – | – | – | CG13999 | 1
0.18 | 0.19 | – | – | – | CG14966 | 1
0.56 | 0.45 | – | – | – | CG12934 | 1
0.09 | 0.23 | – | – | – | Cpr97Ea | 1
0.29 | 0.14 | – | – | – | pAbp | 1
0.47 | 0.38 | – | – | – | CG1116 | 1
-0.22 | -0.04 | – | – | – | CG12661 | 1
0.02 | -0.32 | – | – | – | CG17819 | 1
0.37 | 0.23 | – | – | – | CG3568 | 1
0.47 | 0.51 | – | – | – | TAF1B | 1
0.02 | 0.23 | – | – | – | Prx6c + CG12896 + Prx6b | 1
0.32 | 0.3 | 0.63 | 0.25 | – | CG14853 | 1
-0.99 | -0.39 | – | – | reduced secretion | CG14853 | 2
0.44 | 0.25 | – | – | – | Gem4b + Gem4c + Glos | 1
-5.42 | -6.98 | – | – | reduced secretion | Cdk9 | 1
0.35 | 0.37 | – | – | – | CG13151 | 1
0.26 | 0.32 | – | – | – | CG34268 | 1
0.41 | 0.38 | – | – | – | BoYb | 1
0.28 | 0.32 | – | – | – | CG43316 | 1
0.13 | 0.17 | – | – | – | Pcp | 1
0.04 | 0.17 | – | – | – | Rbp6 | 1
0.09 | -0.13 | – | – | – | Rbp6 | 2
0.32 | -0.31 | – | – | – | Rbp6 | 3
0.43 | 0 | – | – | – | Rbp6 | 4
0.22 | -0.4 | – | – | – | Rbp6 | 5
-4.88 | -4.55 | – | – | reduced secretion | Polr2G | 1
0.28 | -0.04 | – | – | – | Rgl | 1
0.52 | 0.52 | – | – | – | ClC-c | 1
0.2 | 0.38 | – | – | – | Fer2 | 1
0.09 | 0.11 | – | – | – | CG11141 | 1
0.15 | 0.44 | – | – | – | Osi3 | 1
0.55 | 0.3 | – | – | – | CG7632 | 1
0.5 | 0.42 | – | – | – | CG3776 | 1
0.12 | 0.6 | 0.69 | 1.04 | – | CG7362 | 1
-0.19 | -0.43 | – | – | – | COX5A | 1
